In publication PMC1557541:

T1: TAP-tagged YGL227W (vid30) (S. cerevisiae) (UniProt P53076)
T1 sequence: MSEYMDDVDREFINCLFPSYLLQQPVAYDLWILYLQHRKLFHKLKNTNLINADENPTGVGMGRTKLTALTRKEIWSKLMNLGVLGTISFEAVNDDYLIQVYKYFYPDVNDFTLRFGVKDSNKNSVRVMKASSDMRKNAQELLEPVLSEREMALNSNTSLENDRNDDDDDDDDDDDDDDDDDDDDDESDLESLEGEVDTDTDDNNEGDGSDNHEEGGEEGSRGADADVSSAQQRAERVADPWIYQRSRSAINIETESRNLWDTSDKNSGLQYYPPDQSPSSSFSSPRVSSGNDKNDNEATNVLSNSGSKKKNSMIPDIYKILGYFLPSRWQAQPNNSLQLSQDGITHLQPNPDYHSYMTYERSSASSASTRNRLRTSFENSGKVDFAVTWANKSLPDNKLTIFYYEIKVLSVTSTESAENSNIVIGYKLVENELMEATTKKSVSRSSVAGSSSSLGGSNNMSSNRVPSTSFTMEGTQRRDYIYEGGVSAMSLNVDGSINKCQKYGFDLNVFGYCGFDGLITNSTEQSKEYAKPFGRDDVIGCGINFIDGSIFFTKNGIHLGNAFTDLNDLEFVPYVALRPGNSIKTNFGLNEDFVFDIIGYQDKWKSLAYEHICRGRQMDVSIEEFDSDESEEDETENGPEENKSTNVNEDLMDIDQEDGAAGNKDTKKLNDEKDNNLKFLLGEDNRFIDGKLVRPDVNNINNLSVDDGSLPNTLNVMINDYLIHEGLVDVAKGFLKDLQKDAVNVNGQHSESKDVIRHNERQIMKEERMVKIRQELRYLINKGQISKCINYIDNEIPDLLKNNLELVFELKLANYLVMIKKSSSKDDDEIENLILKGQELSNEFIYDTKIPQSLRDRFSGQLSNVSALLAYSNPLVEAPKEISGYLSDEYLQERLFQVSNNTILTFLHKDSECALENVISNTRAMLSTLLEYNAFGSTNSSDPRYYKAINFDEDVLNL

T2: TAP-tagged YMR135C (gid8) (S. cerevisiae) (UniProt P40208)
T2 sequence: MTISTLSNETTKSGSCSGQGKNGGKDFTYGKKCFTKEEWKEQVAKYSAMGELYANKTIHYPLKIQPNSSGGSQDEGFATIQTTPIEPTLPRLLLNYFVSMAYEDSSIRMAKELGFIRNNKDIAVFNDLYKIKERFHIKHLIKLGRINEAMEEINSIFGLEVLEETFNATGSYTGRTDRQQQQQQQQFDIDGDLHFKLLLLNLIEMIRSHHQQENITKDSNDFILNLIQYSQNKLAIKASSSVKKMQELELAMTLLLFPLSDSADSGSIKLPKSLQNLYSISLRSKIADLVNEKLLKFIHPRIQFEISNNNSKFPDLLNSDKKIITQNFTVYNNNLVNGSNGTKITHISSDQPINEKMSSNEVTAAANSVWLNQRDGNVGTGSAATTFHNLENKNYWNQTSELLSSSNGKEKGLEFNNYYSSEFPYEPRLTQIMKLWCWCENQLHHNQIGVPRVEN

B1: YMR135C (gid8) (protein, UniProt P40208 1-455)
chain: MTISTLSNETTKSGSCSGQGKNGGKDFTYGKKCFTKEEWKEQVAKYSAMGELYANKTIHYPLKIQPNSSGGSQDEGFATIQTTPIEPTLPRLLLNYFVSMAYEDSSIRMAKELGFIRNNKDIAVFNDLYKIKERFHIKHLIKLGRINEAMEEINSIFGLEVLEETFNATGSYTGRTDRQQQQQQQQFDIDGDLHFKLLLLNLIEMIRSHHQQENITKDSNDFILNLIQYSQNKLAIKASSSVKKMQELELAMTLLLFPLSDSADSGSIKLPKSLQNLYSISLRSKIADLVNEKLLKFIHPRIQFEISNNNSKFPDLLNSDKKIITQNFTVYNNNLVNGSNGTKITHISSDQPINEKMSSNEVTAAANSVWLNQRDGNVGTGSAATTFHNLENKNYWNQTSELLSSSNGKEKGLEFNNYYSSEFPYEPRLTQIMKLWCWCENQLHHNQIGVPRVEN
B2: YIL097W (protein, UniProt P40492 1-516)
chain: MAEKSIFNEPDVDFHLKLNQQLFHIPYELLSKRIKHTQAVINKETKSLHEHTAALNQIFEHNDVEHDELALAKITEMIRKVDHIERFLNTQIKSYCQILNRIKKRLEFFHELKDIKSQNSGTSHNGNNEGTRTKLIQWYQSYTNILIGDYLTRNNPIKYNSETKDHWNSGVVFLKQSQLDDLIDYDVLLEANRISTSLLHERNLLPLISWINENKKTLTKKSSILEFQARLQEYIELLKVDNYTDAIVCFQRFLLPFVKSNFTDLKLASGLLIFIKYCNDQKPTSSTSSGFDTEEIKSQSLPMKKDRIFQHFFHKSLPRITSKPAVNTTDYDKSSLINLQSGDFERYLNLLDDQRWSVLNDLFLSDFYSMYGISQNDPLLIYLSLGISSLKTRDCLHPSDDENGNQETETATTAEKEVEDLQLFTLHSLKRKNCPVCSETFKPITQALPFAHHIQSQLFENPILLPNGNVYDSKKLKKLAKTLKKQNLISLNPGQIMDPVDMKIFCESDSIKMYPT
B3: YDR255C (protein, UniProt Q12508 1-421)
chain: MSELLDSFETEFAKFYTDSNLEETNLQKCLDHTHEFKSQLKKLKAHLNKHIQESKPEVYNKLSDKEKQKFKRKRELIIEKLSKSQRQWDHSVKKQIKYVSQQSNRFNKSTLNKLKEFDIDSVYVNKLPKETMENVNEAIGYHILRYSIDNMPLGNKNEAFQYLKDVYGITNKESTEFIEMGQIVHDLKKGDTESCLKWCSNEMESLSSNHTALSSLKFDLYTLSAMQIVKHGNPVELYYQITQNAPLDCFRHREKELMQNVVPLLTKSLIGQPIEDIDSKVNKELKECTSLFIKEYCAAKHIFFDSPLFLIVLSGLISFQFFIKYKTIRELAHVDWTTKDELPFDVKLPDFLTHFHPIFICPVLKEETTTENPPYSLACHHIISKKALDRLSKNGTITFKCPYCPVNTSMSSTKKVRFVML
B4: YGL227W (vid30) (protein, UniProt P53076 1-958)
chain: MSEYMDDVDREFINCLFPSYLLQQPVAYDLWILYLQHRKLFHKLKNTNLINADENPTGVGMGRTKLTALTRKEIWSKLMNLGVLGTISFEAVNDDYLIQVYKYFYPDVNDFTLRFGVKDSNKNSVRVMKASSDMRKNAQELLEPVLSEREMALNSNTSLENDRNDDDDDDDDDDDDDDDDDDDDDESDLESLEGEVDTDTDDNNEGDGSDNHEEGGEEGSRGADADVSSAQQRAERVADPWIYQRSRSAINIETESRNLWDTSDKNSGLQYYPPDQSPSSSFSSPRVSSGNDKNDNEATNVLSNSGSKKKNSMIPDIYKILGYFLPSRWQAQPNNSLQLSQDGITHLQPNPDYHSYMTYERSSASSASTRNRLRTSFENSGKVDFAVTWANKSLPDNKLTIFYYEIKVLSVTSTESAENSNIVIGYKLVENELMEATTKKSVSRSSVAGSSSSLGGSNNMSSNRVPSTSFTMEGTQRRDYIYEGGVSAMSLNVDGSINKCQKYGFDLNVFGYCGFDGLITNSTEQSKEYAKPFGRDDVIGCGINFIDGSIFFTKNGIHLGNAFTDLNDLEFVPYVALRPGNSIKTNFGLNEDFVFDIIGYQDKWKSLAYEHICRGRQMDVSIEEFDSDESEEDETENGPEENKSTNVNEDLMDIDQEDGAAGNKDTKKLNDEKDNNLKFLLGEDNRFIDGKLVRPDVNNINNLSVDDGSLPNTLNVMINDYLIHEGLVDVAKGFLKDLQKDAVNVNGQHSESKDVIRHNERQIMKEERMVKIRQELRYLINKGQISKCINYIDNEIPDLLKNNLELVFELKLANYLVMIKKSSSKDDDEIENLILKGQELSNEFIYDTKIPQSLRDRFSGQLSNVSALLAYSNPLVEAPKEISGYLSDEYLQERLFQVSNNTILTFLHKDSECALENVISNTRAMLSTLLEYNAFGSTNSSDPRYYKAINFDEDVLNL
B5: YIL017C (protein, UniProt P40547 1-921)
chain: MTVAYSLENLKKISNSLVGDQLAKVDYFLAPKCQIFQCLLSIEQSDGVELKNAKLDLLYTLLHLEPQQRDIVGTYYFDIVSAIYKSMSLASSFTKNNSSTNYKYIKLLNLCAGVYPNCGFPDLQYLQNGFIQLVNHKFLRSKCKIDEVVTIIELLKLFLLVDEKNCSDFNKSKFMEEEREVTETSHYQDFKMAESLEHIIVKISSKYLDQISLKYIVRLKVSRPASPSSVKNDPFDNKGVDCTRAIPKKINISNMYDSSLLSLALLLYLRYHYMIPGDRKLRNDATFKMFVLGLLKSNDVNIRCVALKFLLQPYFTEDKKWEDTRTLEKILPYLVKSFNYDPLPWWFDPFDMLDSLIVLYNEITPMNNPVLTTLAHTNVIFCILSRFAQCLSLPQHNEATLKTTTKFIKICASFAASDEKYRLLLLNDTLLLNHLEYGLESHITLIQDFISLKDEIKETTTESHSMCLPPIYDHDFVAAWLLLLKSFSRSVSALRTTLKRNKIAQLLLQILSKTYTLTKECYFAGQDFMKPEIMIMGITLGSICNFVVEFSNLQSFMLRNGIIDIIEKMLTDPLFNSKKAWDDNEDERRIALQGIPVHEVKANSLWVLRHLMYNCQNEEKFQLLAKIPMNLILDFINDPCWAVQAQCFQLLRNLTCNSRKIVNILLEKFKDVEYKIDPQTGNKISIGSTYLFEFLAKKMRLLNPLDTQQKKAMEGILYIIVNLAAVNENKKQLVIEQDEILNIMSEILVETTTDSSSNGNDSNLKLACLWVLNNLLWNSSVSHYTQYAIENGLEPGHSPSDSENPQSTVTIGYNESVAGGYSRGKYYDEPDGDDSSSNANDDEDDDNDEGDDEGDEFVRTPAAKGSTSNVQVTRATVERCRKLVEVGLYDLVRKNITDESLSVREKARTLLYHMDLLLKVK
B6: YDL176W (protein, UniProt Q12027 1-708)
chain: MATGRIQFAVSTPCNTKGKPSGYRLFEFKNDRLALVPSERGCTKVDVNANIQAFCYLRPNGRDTSISPDATHILDSCDYMVLAKSNGFIEIISNYQYKIKNGLRLAPSYILRCTPEDFESNFFSDYMIAGLEYSQGLLYCCMCSGRIYVFVMNLPTDYIQYKNMYNPMFPDCFFKVHHDNNTTHSSEEEKLFEGSTRYTGRSCSKHICYFLLPIEPSHLRSSPVVSSFCNMYQGLPIYRPSMYLHIERGISTFHINPLDRFCFMTVSPRSPLFIRKIILPLTYVTFLSTFISLKNSIQGDTCGEILSWDNVAQQNGFGSLFSWISNKFTFDTDIINSTIWDDIVKYSGTGMLDSGIVWKQRQGHAKDDIYELFHTQDMLGSSRRNSSFSTASSEPRPLSRRRRESFQALTRDAFRERMDVPCSTKWELDSFIRGLRRNTFMVDFEIVEKISHRNGNDGVNEDDNTTDESDETMTSFLTDNYKKMDIVCIDHFVTLSAFRPRYYDEPIIKIDSLSNKNGSENGTNEEEWAESQMKVDGQVIDDETAQFKQALGNLCSFKKLFMLDDSLCFILDTHGVLLINRFEIKNTKNLLRNSKDTIRIIPHDFGLINDTIVIINDIDVGTDNVCALTFHLVVTSMAGEITVLKGEFFKNCRLGRIKLCDSLKLNRKDRFVDKLALIDYDGLNAQKRRLDYDEKDLYTFIVKKVKRD
B7: YBR105C (protein, UniProt P38263 1-362)
chain: MINNPKVDSVAEKPKAVTSKQSEQAASPEPTPAPPVSRNQYPITFNLTSTAPFHLHDRHRYLQEQDLYKCASRDSLSSLQQLAHTPNGSTRKKYIVEDQSPYSSENPVIVTSSYNHTVCTNYLRPRMQFTGYQISGYKRYQVTVNLKTVDLPKKDCTSLSPHLSGFLSIRGLTNQHPEISTYFEAYAVNHKELGFLSSSWKDEPVLNEFKATDQTDLEHWINFPSFRQLFLMSQKNGLNSTDDNGTTNAAKKLPPQQLPTTPSADAGNISRIFSQEKQFDNYLNERFIFMKWKEKFLVPDALLMEGVDGASYDGFYYIVHDQVTGNIQGFYYHQDAEKFQQLELVPSLKNKVESSDCSFEFA

Tests used:
[1] = target: T1, TAP-tagged YGL227W (vid30) (S. cerevisiae); experiment: affinity purification with mass spectrometry; tandem affinity purification (IgG and calmodulin columns) of the TAP-tagged protein from extracts of yeast cells (3 liters), native level of expression; SDS-PAGE with silver staining, bands identified by MALDI-TOF MS, other half of the mixture by LC-MS MS; TAP-tagged YGL227W also purified from the YDR255CΔ strain (all other members still co-purified)
[2] = target: T2, TAP-tagged YMR135C (gid8) (S. cerevisiae); experiment: as above

Binder	binding [1]	binding [2]
B1	binds	–
B2	binds	binds
B3	binds	binds
B4	–	binds
B5	binds	binds
B6	binds	binds
B7	binds	–

No constants are given. Whether binding was seen depends on the method and setting. In cells and extracts the contact can be indirect. These calls come from enrichment with a bait or labelling near it, and not all partners need be listed. Tags and fused reporters may be left off the sequences shown.
